From PMC8184781, “A histone H3K4me1-specific binding protein is required for siRNA accumulation and DNA methylation at a subset of loci targeted by RNA-directed DNA methylation” (Nature Communications, 2021)
No constants are given. Whether binding was seen depends on the method and setting. In cells and extracts the contact can be indirect. A yes stands for co-enrichment or nearness to the bait. Other partners may have been found. Where a sequence is shown, tags or fusion partners need not be part of it.

Assays:
[1] = target: T1, RDM15-3xFLAG (Arabidopsis thaliana) (UniProt Q8GUP3); experiment: affinity purification with mass spectrometry; anti-Flag M2 or anti-Myc immunoprecipitation from flower tissue of RDM15-3xFLAG/rdm15-3 or RDM15-3xMYC/rdm15-3 plants; LC-MS/MS; WT plants as control
T1 sequence: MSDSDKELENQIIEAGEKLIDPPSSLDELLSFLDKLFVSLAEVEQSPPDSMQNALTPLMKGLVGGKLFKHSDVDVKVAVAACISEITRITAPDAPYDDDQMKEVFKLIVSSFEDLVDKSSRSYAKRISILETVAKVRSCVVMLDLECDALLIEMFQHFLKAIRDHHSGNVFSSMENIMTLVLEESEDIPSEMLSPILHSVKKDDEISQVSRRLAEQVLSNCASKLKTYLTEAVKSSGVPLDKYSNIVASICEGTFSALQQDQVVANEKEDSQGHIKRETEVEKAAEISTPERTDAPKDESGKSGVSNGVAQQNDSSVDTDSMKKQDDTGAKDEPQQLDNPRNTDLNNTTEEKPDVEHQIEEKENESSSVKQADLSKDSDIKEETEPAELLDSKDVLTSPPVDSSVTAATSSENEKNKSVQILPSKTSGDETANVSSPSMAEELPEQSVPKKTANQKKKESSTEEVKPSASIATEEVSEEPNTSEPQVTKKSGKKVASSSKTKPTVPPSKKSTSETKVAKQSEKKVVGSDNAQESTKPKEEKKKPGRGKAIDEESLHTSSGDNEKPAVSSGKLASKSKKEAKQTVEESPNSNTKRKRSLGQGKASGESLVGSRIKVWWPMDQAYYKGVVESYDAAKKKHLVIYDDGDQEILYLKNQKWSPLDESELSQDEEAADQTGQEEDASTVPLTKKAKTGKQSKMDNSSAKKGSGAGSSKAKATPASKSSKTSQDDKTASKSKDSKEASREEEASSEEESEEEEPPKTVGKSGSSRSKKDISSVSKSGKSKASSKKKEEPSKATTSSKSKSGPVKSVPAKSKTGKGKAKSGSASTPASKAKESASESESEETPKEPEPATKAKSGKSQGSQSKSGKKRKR

[2] = target: T2, RDM15-3xMYC (Arabidopsis thaliana) (UniProt Q8GUP3); experiment: as above
T2 sequence: T1 sequence

binding [1]: binds
binding [2]: binds
B1: NRPE3B, a subunit exclusive to Pol V (protein, UniProt Q39212 1-319)
chain: MDGVTYQRFPTVKIRELKDDYAKFELRETDVSMANALRRVMISEVPTMAIHLVKIEVNSSVLNDEFIAQRLSLIPLTSERAMSMRFCQDCEDCNGDEHCEFCSVEFPLSAKCVTDQTLDVTSRDLYSADPTVTPVDFTSNSSTSDSSEHKGIIIAKLRRGQELKLKALARKGIGKDHAKWSPAATVTYMYEPDIIINEEMMNTLTDEEKIDLIESSPTKVFGIDPVTGQVVVVDPEAYTYDEEVIKKAEAMGKPGLIEIHPKHDSFVFTVESTGALKASQLVLNAIDILKQKLDAIRLSDNTVEADDQFGELGAHMREG
